This is one part of the list.
What was measured:
Experiment in all cases: log2 fold change, soluble protein after heating vs DMSO (PISA); higher = thermal stabilisation; K562 lysate, 10 uM; active = over 0.2 and 3.5 SD of the protein, either way, in both replicates (recomputed)
nilotinib = compound: Cc1cn(-c2cc(NC(=O)c3ccc(C)c(Nc4nccc(-c5cccnc5)n4)c3)cc(C(F)(F)F)c2)cn1 [nilotinib]
How it was run: (§1)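 K562 pellets were dounce-homogenised in PBS pH 7.4 with 1 mM MgCl2, and the crude extract at 1 mg/mL protein was treated with 10 μM compound for 30 min. Aliquots were heated for 3 min across 48°C-58°C, pooled, and brought to 0.5% NP-40 at 4°C; soluble protein was the supernatant after 21,000xg for 90 min. Soluble protein was quantified by TMTpro 16plex LC-MS/MS with channel sums equalised, and reported as log2 fold change in thermal stability against DMSO controls, with values from duplicates.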

Amino acid sequences for entries named in this document (tags omitted). A change or cut given only in a name is not applied to a line headed by its entry.
UniProt Q9Y496, whole entry, looked up: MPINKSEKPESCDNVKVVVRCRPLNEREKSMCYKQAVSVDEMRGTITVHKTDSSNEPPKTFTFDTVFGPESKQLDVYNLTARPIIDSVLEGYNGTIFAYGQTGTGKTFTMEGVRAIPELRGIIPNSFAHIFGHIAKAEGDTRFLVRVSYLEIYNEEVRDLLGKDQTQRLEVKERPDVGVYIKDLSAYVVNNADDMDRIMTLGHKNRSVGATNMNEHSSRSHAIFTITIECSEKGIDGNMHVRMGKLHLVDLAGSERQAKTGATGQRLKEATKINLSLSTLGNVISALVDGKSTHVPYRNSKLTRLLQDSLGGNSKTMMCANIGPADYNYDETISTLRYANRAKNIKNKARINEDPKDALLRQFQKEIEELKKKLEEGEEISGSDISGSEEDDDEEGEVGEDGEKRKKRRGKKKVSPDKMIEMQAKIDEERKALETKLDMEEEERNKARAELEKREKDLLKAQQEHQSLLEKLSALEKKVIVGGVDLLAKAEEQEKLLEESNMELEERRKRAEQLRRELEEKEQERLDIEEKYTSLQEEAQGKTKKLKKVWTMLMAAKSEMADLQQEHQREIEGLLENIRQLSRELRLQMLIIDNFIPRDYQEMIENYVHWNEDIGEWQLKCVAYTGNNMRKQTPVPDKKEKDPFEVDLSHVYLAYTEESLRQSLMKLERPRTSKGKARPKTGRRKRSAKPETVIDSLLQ
UniProt A8MWY0: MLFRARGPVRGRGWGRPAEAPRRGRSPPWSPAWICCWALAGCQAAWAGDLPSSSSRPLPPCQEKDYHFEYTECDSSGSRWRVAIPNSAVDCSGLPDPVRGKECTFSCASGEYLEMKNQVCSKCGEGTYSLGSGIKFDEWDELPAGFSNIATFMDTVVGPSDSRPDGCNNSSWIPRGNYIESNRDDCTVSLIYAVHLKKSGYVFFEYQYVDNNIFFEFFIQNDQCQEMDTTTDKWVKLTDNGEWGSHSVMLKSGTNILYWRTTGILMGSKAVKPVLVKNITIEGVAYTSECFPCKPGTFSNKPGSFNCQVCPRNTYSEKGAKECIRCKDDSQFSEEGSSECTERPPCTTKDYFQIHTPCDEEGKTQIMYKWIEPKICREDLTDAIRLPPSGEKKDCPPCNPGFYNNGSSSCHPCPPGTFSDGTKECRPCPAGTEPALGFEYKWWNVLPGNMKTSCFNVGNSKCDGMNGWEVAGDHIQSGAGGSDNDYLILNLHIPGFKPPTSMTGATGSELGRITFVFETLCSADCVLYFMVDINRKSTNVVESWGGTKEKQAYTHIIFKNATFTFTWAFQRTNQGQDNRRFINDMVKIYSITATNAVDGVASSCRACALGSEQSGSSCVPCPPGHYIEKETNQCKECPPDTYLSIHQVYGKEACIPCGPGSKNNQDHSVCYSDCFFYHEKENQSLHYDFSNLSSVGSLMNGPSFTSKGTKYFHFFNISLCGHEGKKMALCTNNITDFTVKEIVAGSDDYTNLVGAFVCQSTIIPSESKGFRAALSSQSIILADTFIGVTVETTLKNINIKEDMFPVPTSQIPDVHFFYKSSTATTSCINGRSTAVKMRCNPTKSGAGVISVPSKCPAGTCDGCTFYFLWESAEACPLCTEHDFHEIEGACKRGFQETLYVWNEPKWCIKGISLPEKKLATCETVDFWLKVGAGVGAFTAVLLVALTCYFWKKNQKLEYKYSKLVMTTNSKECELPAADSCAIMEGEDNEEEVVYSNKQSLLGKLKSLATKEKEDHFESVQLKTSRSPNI
UniProt Q53G59: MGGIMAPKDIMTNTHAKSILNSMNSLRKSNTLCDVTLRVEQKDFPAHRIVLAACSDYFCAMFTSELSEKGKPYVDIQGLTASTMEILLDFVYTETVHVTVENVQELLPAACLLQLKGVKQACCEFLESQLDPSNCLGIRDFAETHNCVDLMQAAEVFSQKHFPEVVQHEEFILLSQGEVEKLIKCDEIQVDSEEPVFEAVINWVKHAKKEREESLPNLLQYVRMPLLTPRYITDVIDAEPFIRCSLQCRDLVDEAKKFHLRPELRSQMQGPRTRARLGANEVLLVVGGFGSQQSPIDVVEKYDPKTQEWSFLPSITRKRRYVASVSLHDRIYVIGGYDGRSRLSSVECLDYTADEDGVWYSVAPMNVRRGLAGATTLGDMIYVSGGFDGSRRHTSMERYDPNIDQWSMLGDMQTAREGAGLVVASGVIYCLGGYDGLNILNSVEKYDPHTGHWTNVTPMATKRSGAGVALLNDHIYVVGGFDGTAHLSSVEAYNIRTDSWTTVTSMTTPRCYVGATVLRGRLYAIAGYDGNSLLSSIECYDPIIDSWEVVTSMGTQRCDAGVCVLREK
UniProt Q8TBB5: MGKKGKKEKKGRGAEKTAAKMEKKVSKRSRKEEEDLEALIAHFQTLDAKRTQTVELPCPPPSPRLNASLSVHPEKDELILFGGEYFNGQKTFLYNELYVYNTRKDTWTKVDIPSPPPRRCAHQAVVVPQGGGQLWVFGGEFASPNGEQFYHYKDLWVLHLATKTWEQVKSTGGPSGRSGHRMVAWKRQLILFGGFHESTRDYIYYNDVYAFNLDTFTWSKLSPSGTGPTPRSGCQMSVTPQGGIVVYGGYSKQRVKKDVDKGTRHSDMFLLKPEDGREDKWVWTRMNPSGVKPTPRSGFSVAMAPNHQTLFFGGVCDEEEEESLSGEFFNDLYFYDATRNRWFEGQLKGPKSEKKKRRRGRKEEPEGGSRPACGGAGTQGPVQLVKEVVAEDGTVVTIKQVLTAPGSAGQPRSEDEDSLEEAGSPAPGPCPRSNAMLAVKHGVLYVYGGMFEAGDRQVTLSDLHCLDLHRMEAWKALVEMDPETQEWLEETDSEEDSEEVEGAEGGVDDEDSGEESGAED
UniProt Q14145, whole entry, looked up: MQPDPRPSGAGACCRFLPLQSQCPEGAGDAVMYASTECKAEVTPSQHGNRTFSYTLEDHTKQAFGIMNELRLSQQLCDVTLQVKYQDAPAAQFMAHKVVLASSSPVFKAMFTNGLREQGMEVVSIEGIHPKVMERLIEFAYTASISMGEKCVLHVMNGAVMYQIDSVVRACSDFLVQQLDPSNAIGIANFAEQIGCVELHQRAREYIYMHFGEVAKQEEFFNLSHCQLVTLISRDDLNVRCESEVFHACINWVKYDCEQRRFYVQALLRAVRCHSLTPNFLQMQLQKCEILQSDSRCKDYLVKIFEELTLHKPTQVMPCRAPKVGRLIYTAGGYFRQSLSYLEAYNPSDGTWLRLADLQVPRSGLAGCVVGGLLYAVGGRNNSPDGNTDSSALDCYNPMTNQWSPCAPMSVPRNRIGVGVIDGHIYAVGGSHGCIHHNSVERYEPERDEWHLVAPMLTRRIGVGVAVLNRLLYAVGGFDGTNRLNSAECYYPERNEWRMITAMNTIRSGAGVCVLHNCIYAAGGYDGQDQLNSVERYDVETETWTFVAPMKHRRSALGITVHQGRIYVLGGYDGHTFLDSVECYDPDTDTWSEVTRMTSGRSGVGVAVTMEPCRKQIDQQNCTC
UniProt Q1ED39: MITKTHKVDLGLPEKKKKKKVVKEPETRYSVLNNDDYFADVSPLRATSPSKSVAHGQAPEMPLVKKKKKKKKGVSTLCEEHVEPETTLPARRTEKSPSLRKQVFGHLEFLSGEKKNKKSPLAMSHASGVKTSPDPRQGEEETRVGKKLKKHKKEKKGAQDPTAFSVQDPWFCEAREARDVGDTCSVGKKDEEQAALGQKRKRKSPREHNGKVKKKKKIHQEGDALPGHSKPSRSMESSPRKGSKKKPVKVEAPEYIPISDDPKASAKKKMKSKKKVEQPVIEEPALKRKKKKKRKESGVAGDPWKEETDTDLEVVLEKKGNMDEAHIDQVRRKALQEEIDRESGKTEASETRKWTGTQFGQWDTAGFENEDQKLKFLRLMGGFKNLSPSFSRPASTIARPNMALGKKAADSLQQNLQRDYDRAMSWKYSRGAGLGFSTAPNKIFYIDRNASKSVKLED
UniProt Q9H9P8: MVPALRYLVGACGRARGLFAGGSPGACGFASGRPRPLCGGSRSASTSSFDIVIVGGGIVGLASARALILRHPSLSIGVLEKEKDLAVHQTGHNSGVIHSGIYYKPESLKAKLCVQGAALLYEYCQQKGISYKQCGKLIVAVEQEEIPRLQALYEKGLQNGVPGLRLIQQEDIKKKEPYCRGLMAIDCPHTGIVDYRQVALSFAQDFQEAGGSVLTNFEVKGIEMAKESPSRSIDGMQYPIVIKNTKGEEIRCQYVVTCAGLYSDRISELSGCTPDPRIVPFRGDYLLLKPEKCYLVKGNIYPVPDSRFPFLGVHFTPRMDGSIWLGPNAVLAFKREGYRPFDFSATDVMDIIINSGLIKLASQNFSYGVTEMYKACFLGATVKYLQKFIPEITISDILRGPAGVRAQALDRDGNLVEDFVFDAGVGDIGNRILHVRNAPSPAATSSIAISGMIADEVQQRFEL
UniProt Q8IVT5: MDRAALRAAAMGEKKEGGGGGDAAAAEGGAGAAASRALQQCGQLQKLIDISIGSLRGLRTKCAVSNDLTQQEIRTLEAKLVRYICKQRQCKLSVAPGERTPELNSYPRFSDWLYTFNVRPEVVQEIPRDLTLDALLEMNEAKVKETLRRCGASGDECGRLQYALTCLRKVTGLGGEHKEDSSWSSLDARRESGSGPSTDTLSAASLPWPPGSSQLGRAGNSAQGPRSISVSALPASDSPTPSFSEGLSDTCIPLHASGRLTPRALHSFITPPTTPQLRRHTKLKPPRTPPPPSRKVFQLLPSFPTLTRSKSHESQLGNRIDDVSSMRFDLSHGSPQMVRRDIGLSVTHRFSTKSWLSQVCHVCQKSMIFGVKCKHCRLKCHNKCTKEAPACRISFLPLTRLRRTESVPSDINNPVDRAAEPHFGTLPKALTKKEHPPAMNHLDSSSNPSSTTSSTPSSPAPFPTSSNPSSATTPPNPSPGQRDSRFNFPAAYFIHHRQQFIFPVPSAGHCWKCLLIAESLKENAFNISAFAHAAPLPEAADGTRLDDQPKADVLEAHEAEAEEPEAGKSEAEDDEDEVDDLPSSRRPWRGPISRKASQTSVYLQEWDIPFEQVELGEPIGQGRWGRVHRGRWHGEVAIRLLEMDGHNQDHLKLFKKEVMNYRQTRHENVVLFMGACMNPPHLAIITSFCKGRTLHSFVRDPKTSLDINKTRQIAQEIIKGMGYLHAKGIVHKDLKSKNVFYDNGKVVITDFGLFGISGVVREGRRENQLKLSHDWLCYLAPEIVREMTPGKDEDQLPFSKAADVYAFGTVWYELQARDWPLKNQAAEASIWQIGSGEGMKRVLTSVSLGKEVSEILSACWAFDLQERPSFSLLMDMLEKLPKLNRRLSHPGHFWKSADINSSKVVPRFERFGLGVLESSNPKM
UniProt Q4G0J3: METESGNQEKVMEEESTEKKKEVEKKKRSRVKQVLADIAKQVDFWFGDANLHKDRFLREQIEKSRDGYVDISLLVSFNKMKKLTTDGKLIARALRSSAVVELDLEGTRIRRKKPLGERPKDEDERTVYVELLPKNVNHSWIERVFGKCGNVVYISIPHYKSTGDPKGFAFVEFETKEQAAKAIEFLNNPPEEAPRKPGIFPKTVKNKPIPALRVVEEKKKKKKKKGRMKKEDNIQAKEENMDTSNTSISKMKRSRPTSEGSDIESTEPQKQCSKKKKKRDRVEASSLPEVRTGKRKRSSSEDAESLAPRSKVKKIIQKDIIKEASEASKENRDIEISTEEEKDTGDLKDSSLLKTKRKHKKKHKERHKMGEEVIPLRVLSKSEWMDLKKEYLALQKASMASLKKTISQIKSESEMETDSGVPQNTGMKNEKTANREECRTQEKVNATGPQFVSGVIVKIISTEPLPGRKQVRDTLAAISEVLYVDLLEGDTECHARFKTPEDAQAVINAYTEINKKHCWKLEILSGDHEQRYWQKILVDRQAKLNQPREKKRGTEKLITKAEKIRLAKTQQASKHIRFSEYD
UniProt Q96EK5: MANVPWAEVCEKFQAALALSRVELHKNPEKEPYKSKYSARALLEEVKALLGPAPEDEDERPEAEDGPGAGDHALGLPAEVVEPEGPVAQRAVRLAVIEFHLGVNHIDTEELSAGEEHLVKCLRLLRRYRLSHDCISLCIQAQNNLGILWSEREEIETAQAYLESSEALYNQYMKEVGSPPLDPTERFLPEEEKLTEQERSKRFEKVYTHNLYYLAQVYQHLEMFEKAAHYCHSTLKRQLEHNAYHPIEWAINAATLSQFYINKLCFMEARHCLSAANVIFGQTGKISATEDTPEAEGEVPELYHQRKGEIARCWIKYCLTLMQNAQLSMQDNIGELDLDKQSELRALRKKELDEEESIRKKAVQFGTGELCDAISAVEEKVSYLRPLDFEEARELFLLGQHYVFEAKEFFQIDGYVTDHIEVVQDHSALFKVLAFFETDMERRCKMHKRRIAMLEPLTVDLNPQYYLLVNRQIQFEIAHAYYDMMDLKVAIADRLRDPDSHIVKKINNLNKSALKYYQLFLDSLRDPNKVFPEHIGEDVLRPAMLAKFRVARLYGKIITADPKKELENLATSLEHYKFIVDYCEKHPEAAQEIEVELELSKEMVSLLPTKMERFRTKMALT

[1] = compound: Cc1nc(Nc2n[nH]c3c2CN(C(=O)N[C@H](CN(C)C)c2ccccc2)C3(C)C)c2sccc2n1
How it was run: as §1

dasatinib = compound: Cc1nc(Nc2ncc(C(=O)Nc3c(C)cccc3Cl)s2)cc(N2CCN(CCO)CC2)n1 [dasatinib]
How it was run: as §1

[2] = compound: Cc1ncc(-c2ccnc(Nc3ccc(S(C)(=O)=O)cc3)n2)n1C(C)C
How it was run: as §1

[3] = compound: Cn1cc(-c2ccc3c(c2)CCN3C(=O)Cc2cccc(C(F)(F)F)c2)c2c(N)ncnc21
How it was run: as §1

quisinostat = compound: Cn1cc(CNCC2CCN(c3ncc(C(=O)NO)cn3)CC2)c2ccccc21 [quisinostat]
How it was run: as §1

tipifarnib = compound: Cn1cncc1[C@@](N)(c1ccc(Cl)cc1)c1ccc2c(c1)c(-c1cccc(Cl)c1)cc(=O)n2C [tipifarnib]
How it was run: as §1

[4] = compound: NC(=O)Nc1cc(-c2cccc(F)c2)sc1C(=O)N[C@H]1CCCNC1
How it was run: as §1

[5] = compound: NC(=O)c1cnc(N[C@@H]2CCCC[C@@H]2N)nc1Nc1cccc(-n2nccn2)c1
How it was run: as §1

[6] = compound: NC1(c2ccc(-c3nc4ccn5c(=O)[nH]nc5c4cc3-c3ccccc3)cc2)CCC1
How it was run: as §1

Measured: log2 fold change

KNL1 (UniProt Q8NG31)
inactive: nilotinib 0.011 | [1] -0.004 | dasatinib -0.014 | [2] 0.02 | [3] 0.012 | quisinostat -0.048 | tipifarnib -0.06 | [4] 0.023 | [5] 0.024 | [6] -0.001

KIFAP3 (UniProt Q92845)
inactive: nilotinib -0.008 | [1] 0.065 | dasatinib -0.055 | [2] -0.218 | [3] 0.008 | quisinostat -0.041 | tipifarnib -0.102 | [4] 0.071

KLC1 isoform 6 (UniProt Q07866)
inactive: nilotinib 0.009 | [1] -0.017 | dasatinib -0.021 | [2] -0.009 | [3] 0.009 | quisinostat -0.014 | tipifarnib -0.005 | [4] -0.014 | [5] 0.002 | [6] 0.017

LARS (UniProt Q9P2J5)
inactive: nilotinib 0.012 | [1] 0.003 | dasatinib -0.065 | [2] -0.012 | [3] 0.038 | quisinostat -0.005 | tipifarnib -0.006 | [4] 0.034 | [5] 0 | [6] -0.024

2 successive records from above, for reference:
KNL1 (UniProt Q8NG31)
inactive: nilotinib 0.011 | [1] -0.004 | dasatinib -0.014 | [2] 0.02 | [3] 0.012 | quisinostat -0.048 | tipifarnib -0.06 | [4] 0.023 | [5] 0.024 | [6] -0.001

KIFAP3 (UniProt Q92845)
inactive: nilotinib -0.008 | [1] 0.065 | dasatinib -0.055 | [2] -0.218 | [3] 0.008 | quisinostat -0.041 | tipifarnib -0.102 | [4] 0.071

The listing continues.

KIF3A (UniProt Q9Y496)
inactive: nilotinib -0.005 | [1] -0.001 | dasatinib 0.151 | [2] -0.016 | [3] -0.057 | quisinostat 0.003 | tipifarnib 0.015 | [4] 0.07 | [5] -0.027 | [6] 0.009

KIAA1324L (UniProt A8MWY0)
inactive: nilotinib 0.122 | [1] -0.042 | dasatinib 0.031 | [2] 0.031 | [3] 0.018 | quisinostat -0.059 | tipifarnib 0.054 | [4] 0.029 | [5] -0.004 | [6] 0.014

KIFC1 (UniProt Q9BW19)
inactive: nilotinib -0.008 | [1] 0.003 | dasatinib -0.031 | [2] -0.002 | [3] 0.034 | quisinostat -0.055 | tipifarnib 0.006 | [4] 0.001 | [5] -0.024 | [6] -0.025

LAMP2 (UniProt P13473)
inactive: nilotinib -0.02 | [1] 0.031 | dasatinib 0.04 | [2] -0.004 | [3] 0.038 | quisinostat 0.047 | tipifarnib -0.045 | [4] -0.013 | [5] -0.022 | [6] 0.02

KIAA0100 (UniProt Q14667)
inactive: nilotinib 0.105 | [1] 0.003 | dasatinib 0.003 | [2] -0.073 | [3] 0.013 | quisinostat -0.06 | tipifarnib -0.084 | [4] -0.013 | [5] 0.044 | [6] 0.042

KIF2C (UniProt Q99661)
inactive: nilotinib 0.013 | [1] 0.009 | dasatinib -0.021 | [2] 0.002 | [3] 0.028 | quisinostat -0.068 | tipifarnib 0.003 | [4] 0.035 | [5] -0.01 | [6] -0.005

LAP3 (UniProt P28838)
inactive: nilotinib 0.045 | [1] -0.006 | dasatinib -0.047 | [2] 0.016 | [3] -0.123 | quisinostat -0.192 | tipifarnib -0.008 | [4] 0.049 | [5] 0.009 | [6] -0.137

KLHL12 isoform 2 (UniProt Q53G59)
inactive: nilotinib -0.037 | [1] -0.044 | dasatinib -0.056 | [2] 0.064 | [3] -0.07 | quisinostat 0.04 | tipifarnib 0.015 | [4] 0.097 | [5] 0.043 | [6] 0.035

KHDRBS1 (UniProt Q07666)
inactive: nilotinib -0.032 | [1] -0.012 | dasatinib -0.048 | [2] -0.011 | [3] -0.003 | quisinostat 0.037 | tipifarnib 0.032 | [4] 0.005 | [5] 0.011 | [6] 0.028

KLHDC4 (UniProt Q8TBB5)
inactive: nilotinib -0.033 | [1] 0.033 | dasatinib 0.026 | [2] -0.062 | [3] -0.047 | quisinostat -0.029 | tipifarnib 0.02 | [4] 0.031 | [5] -0.123 | [6] 0.033

KEAP1 (UniProt Q14145)
inactive: nilotinib -0.01 | [1] 0.01 | dasatinib -0.023 | [2] -0.014 | [3] -0.044 | quisinostat -0.078 | tipifarnib -0.02 | [4] 0.011 | [5] 0.022 | [6] -0.002

KIAA1143 (UniProt Q96AT1)
inactive: nilotinib -0.006 | [1] 0.01 | dasatinib 0.021 | [2] -0.03 | [3] 0.002 | quisinostat -0.112 | tipifarnib -0.038 | [4] -0.012 | [5] -0.017 | [6] -0.022

KNOP1 (UniProt Q1ED39)
inactive: nilotinib -0.09 | [1] 0.055 | dasatinib -0.028 | [2] -0.095 | [3] -0.001 | quisinostat -0.169 | tipifarnib -0.01 | [4] 0.007 | [5] 0.048 | [6] -0.062

KPTN (UniProt Q9Y664)
inactive: nilotinib -0.064 | [1] -0.104 | dasatinib 0.016 | [2] -0.193 | [3] -0.016 | quisinostat -0.053 | tipifarnib -0.03 | [4] 0.059 | [5] -0.03 | [6] -0.073

LARP4 isoform 4 (UniProt Q71RC2)
inactive: nilotinib -0.022 | [1] 0.008 | dasatinib -0.028 | [2] 0.031 | [3] 0.035 | quisinostat -0.021 | tipifarnib 0.047 | [4] 0.028 | [5] 0.014 | [6] -0.007

KIN (UniProt O60870)
inactive: nilotinib -0.005 | [1] 0.033 | dasatinib -0.028 | [2] -0.043 | [3] 0.044 | quisinostat -0.078 | tipifarnib -0.003 | [4] -0.036 | [5] 0.04 | [6] -0.077

KHSRP (UniProt Q92945)
inactive: nilotinib -0.05 | [1] 0.004 | dasatinib 0.021 | [2] -0.027 | [3] 0.015 | quisinostat 0.105 | tipifarnib -0.001 | [4] 0.004 | [5] -0.009 | [6] 0.019

LAMTOR5 (UniProt O43504)
inactive: nilotinib 0.015 | [1] 0.013 | dasatinib -0.045 | [2] 0.063 | [3] -0.005 | quisinostat 0.046 | tipifarnib 0.003 | [4] -0.089 | [5] -0.084 | [6] 0.088

KDM8 isoform 3 (UniProt Q8N371)
inactive: nilotinib -0.001 | [1] 0.015 | dasatinib 0.02 | [2] 0 | [3] 0.05 | quisinostat -0.016 | tipifarnib -0.065 | [4] 0.041 | [5] 0.009 | [6] -0.025

L2HGDH (UniProt Q9H9P8)
inactive: nilotinib -0.004 | [1] -0.01 | dasatinib 0.024 | [2] 0.04 | [3] -0.034 | quisinostat 0.028 | tipifarnib -0.047 | [4] 0.035 | [5] -0.006 | [6] 0.028

KPNA3 (UniProt O00505)
inactive: nilotinib -0.032 | [1] 0.037 | dasatinib -0.023 | [2] 0.028 | [3] 0.009 | quisinostat 0.027 | tipifarnib -0.022 | [4] 0.042 | [5] 0.039 | [6] 0.028

KIF5B (UniProt P33176)
inactive: nilotinib 0.006 | [1] -0.029 | dasatinib 0.003 | [2] -0.009 | [3] 0.006 | quisinostat -0.008 | tipifarnib 0.009 | [4] 0.003 | [5] 0.007 | [6] 0.013

LAMTOR3 (UniProt Q9UHA4)
inactive: nilotinib 0.01 | [1] -0.014 | dasatinib -0.031 | [2] 0.026 | [3] 0 | quisinostat -0.061 | tipifarnib 0.007 | [4] -0.023 | [5] -0.02 | [6] 0.029

KSR1 (UniProt Q8IVT5)
inactive: nilotinib 0 | [1] -0.04 | dasatinib -0.106 | [2] 0.056 | [3] 0.057 | quisinostat -0.015 | tipifarnib -0.116 | [4] 0.069 | [5] 0.051 | [6] 0.003

LARP7 isoform 3 (UniProt Q4G0J3)
inactive: nilotinib -0.015 | [1] -0.012 | dasatinib -0.008 | [2] 0.013 | [3] 0.021 | quisinostat 0.031 | tipifarnib 0.003 | [4] 0.016 | [5] 0.015 | [6] -0.012

KIFBP (UniProt Q96EK5)
inactive: nilotinib 0.007 | [1] 0.013 | dasatinib -0.038 | [2] -0.009 | [3] 0.025 | quisinostat -0.006 | tipifarnib 0.02 | [4] 0.031 | [5] -0.003 | [6] 0.019

Source: the supplement of paper PMC10849652
